# According to the supplement of paper PMC9135407:
# “And” between values parts separate entries of the source, which are not always exact repeats. Equal values may be shown once. Where a name gives a salt, the structure may show the parent alone. ± gives the standard deviation of the averaged measurements. Some of the results follow. Baselines shift from plate to plate; read single values as rough.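 Assay uses culture-activated primary human stellate myofibroblasts; lipid droplet recovery indicates inactivation. Measured: proportion of Hoechst-counted cells over a plate-specific Bodipy cutoff, duplicate wells, DMSO and nortriptyline as per-plate negative and positive controls. A hit scores, control-normalized, above the plate's top-tenth-percentile nortriptyline wells or ranks among its three best wells. Final well concentrations not reported.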
# Tested on: primary human hepatic stellate cells (donor 1)
# Assay: percent Bodipy-positive cells; higher = more lipid droplet accumulation
# Conditions: 48 h
# [1] = library stock concentration: 3.33 mM
# [2] = library stock concentration: 10 mM
# [3] = library stock concentration: 80 uM
# [4] = library stock concentration: 400 uM
# [5] = library stock concentration: 2 mM
structure (smiles),measurement,setting,value
CC(C)(C)C(=O)OCOC(=O)[C@@H]1N2C(=O)[C@@H](NC(=O)[C@H](N)c3ccccc3)[C@H]2SC1(C)C [Pivampicillin],percent Bodipy-positive cells,,12.9 ± 4.5%
CCCCOc1c(C(=O)c2c(F)cc(C)cc2F)c[nH]c2nncc1-2,percent Bodipy-positive cells,[1],47.6 ± 0.76%
same,percent Bodipy-positive cells,[2],56.5 ± 3.1%
CC1(C)Oc2ccc(C#N)cc2[C@H](N2CCCC2=O)[C@H]1O [Cromakalim],percent Bodipy-positive cells,[2],2.95 ± 1.1%
COc1cccc(OC)c1OCCNCC1COc2ccccc2O1 (configuration not stated) [WB 4101 hydrochloride],percent Bodipy-positive cells,[2],29.8 ± 4.7%
COc1cccc(OC)c1OCCNCC1COc2ccccc2O1 (configuration not stated) [WB-4101 hydrochloride],percent Bodipy-positive cells,[2],67 ± 13%
Nc1ccccc1NC(=O)c1ccc(CNC(=O)OCc2cccnc2)cc1,percent Bodipy-positive cells,[3],32.6 ± 3.6%
same,percent Bodipy-positive cells,[4],34.9 ± 8.6%
same,percent Bodipy-positive cells,library stock concentration: 1 mM,23.4 ± 3.1%
same,percent Bodipy-positive cells,[5],50.5 ± 7.5%
same,percent Bodipy-positive cells,[2],85.7 ± 1.9%
Nc1ccccc1NC(=O)c1ccc(CNC(=O)OCc2cccnc2)cc1 [Entinostat (MS-275)],percent Bodipy-positive cells,[1],35 ± 0.7%
same,percent Bodipy-positive cells,[2],61.5 ± 5.2%
O=C1NCN(c2ccccc2)C12CCN(CCCC(c1ccc(F)cc1)c1ccc(F)cc1)CC2 [Fluspirilen],percent Bodipy-positive cells,,10.8 ± 1.5%
CC(=O)SCC[N+](C)(C)C [Acetylthiocholine chloride],percent Bodipy-positive cells,[2],31.2 ± 8.7%
NC(=O)Cc1cccc(C(=O)c2ccccc2)c1N [Nepafenac],percent Bodipy-positive cells,[1],7.34 ± 3.1%
same,percent Bodipy-positive cells,[2],5.99 ± 1.3%
C[C@H]1COC2=C1C(=O)C(=O)c1c2ccc2c1CCCC2(C)C [Cryptotanshinone],percent Bodipy-positive cells,[1],18.7 ± 6.2%
same,percent Bodipy-positive cells,[2],53.3 ± 6.3%
CN(C)CC[C@H](CSc1ccccc1)Nc1ccc(S(=O)(=O)NC(=O)c2ccc(N3CCN(Cc4ccccc4-c4ccc(Cl)cc4)CC3)cc2)cc1[N+](=O)[O-],percent Bodipy-positive cells,[3],10.8 ± 3.5%
same,percent Bodipy-positive cells,[4],19.8% and 9.39%
same,percent Bodipy-positive cells,[5],4.9% and 8.4%
same,percent Bodipy-positive cells,[1],13.7 ± 9.1%
same,percent Bodipy-positive cells,[2],14.8% and 2.75% and 3.88%
O=C(Nc1nc2ccccc2n1CCN1CCOCC1)c1cccc([N+](=O)[O-])c1 [IRAK-1/4 Inhibitor I],percent Bodipy-positive cells,[2],72.8 ± 19%
CC(C)COC(=O)OCN1C(=O)CN(CCN2CC(=O)N(COC(=O)OCC(C)C)C(=O)C2)CC1=O [Sobuzoxane],percent Bodipy-positive cells,[2],19.1 ± 1.7%
CCCCC1=NC2(CCCC2)C(=O)N1Cc1ccc(-c2ccccc2-c2nnn[nH]2)cc1 [Irbesartan],percent Bodipy-positive cells,library stock concentration: 4.7 mM,6.6 ± 2.7%
same,percent Bodipy-positive cells,[2],34.5 ± 7.5%
O=[N+]([O-])c1ccc2c(c1)S(=O)(=O)C=C2 [Stattic],percent Bodipy-positive cells,[2],98.68 ± 0.98%
CC[C@H]1OC(=O)[C@H](C)[C@@H](O[C@H]2C[C@@](C)(OC)[C@@H](O)[C@H](C)O2)[C@H](C)[C@@H](O[C@@H]2O[C@H](C)C[C@H](N(C)C)[C@H]2O)[C@](C)(OC)C[C@@H](C)C(=O)[C@H](C)[C@@H](O)[C@]1(C)O,percent Bodipy-positive cells,[2],36.6 ± 11%
CC[C@H]1OC(=O)[C@H](C)[C@@H](O[C@H]2C[C@@](C)(OC)[C@@H](O)[C@H](C)O2)[C@H](C)[C@@H](O[C@@H]2O[C@H](C)C[C@H](N(C)C)[C@H]2O)[C@](C)(OC)C[C@@H](C)C(=O)[C@H](C)[C@@H](O)[C@]1(C)O [Clarithromycin],percent Bodipy-positive cells,[1],10.5 ± 5.1%
same,percent Bodipy-positive cells,[2],16.5% and 40%

# 2 entries from above, as tab-separated lines.
structure (smiles)	measurement	setting	value
CCCCOc1c(C(=O)c2c(F)cc(C)cc2F)c[nH]c2nncc1-2	percent Bodipy-positive cells	[1]	47.6 ± 0.76%
same	percent Bodipy-positive cells	[2]	56.5 ± 3.1%
